According to publication PMC12733451, “A Novel RANKL/RANK Inhibitor IMB-R38 Inhibits Osteoporosis Through Regulating Bone Metabolism” (International Journal of Molecular Sciences, 2025):
Residue numbers refer to the chain shown, from its start. No constants are given. Whether binding was seen depends on the method and setting. Some binding calls cover weakened binding; strength is not graded here. Tags and fused reporters may be left off the sequences shown.

The chains behind the UniProt entries cited, without tags or fusion partners. Residues count along the entry.
UniProt O35235, residues 143-316: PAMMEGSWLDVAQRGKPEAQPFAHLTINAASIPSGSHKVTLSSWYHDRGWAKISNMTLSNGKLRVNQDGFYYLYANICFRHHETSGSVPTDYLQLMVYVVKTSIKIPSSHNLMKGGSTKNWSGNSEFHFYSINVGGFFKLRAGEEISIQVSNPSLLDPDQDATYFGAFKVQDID

Key:
Assay in all cases: two-hybrid; GAL4 system in yeast AH109; AD (pGADT7) and BD (pGBKT7) fusions; growth on SD/-Trp/-Leu/-His/-Ade quadruple-dropout plates or medium, 30 °C, 3-4 days
[1] = target: T1, RANK (amino acids 26-211) Lys169 > Ala fused to the GAL4 DNA-binding domain (pBD-RANK-Lys169 > Ala) (UniProt O35305)
T1 sequence: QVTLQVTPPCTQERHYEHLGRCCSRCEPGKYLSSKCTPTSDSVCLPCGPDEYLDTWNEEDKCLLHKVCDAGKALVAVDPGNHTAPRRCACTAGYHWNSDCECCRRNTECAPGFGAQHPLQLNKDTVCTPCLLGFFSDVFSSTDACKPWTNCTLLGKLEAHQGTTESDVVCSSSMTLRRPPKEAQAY

[2] = target: T2, RANK (amino acids 26-211) Asp168 > Ala fused to the GAL4 DNA-binding domain (pBD-RANK-Asp168 > Ala) (UniProt O35305)
T2 sequence: T1 sequence with D143A, A144K

[3] = target: T3, RANK (amino acids 26-211) Asp168 + Lys169 > Ala fused to the GAL4 DNA-binding domain (pBD-RANK-Asp168 + Lys169 > Ala) (UniProt O35305)
T3 sequence: T1 sequence with D143A

For “RANKL (amino acids 143-317) fused to the GAL4 transcription activation domain (pAD-RANKL) (from UniProt O35235 143-316) (domain or fragment)”, the binding [1] was “binds”, the binding [2] was “no binding” and the binding [3] was “no binding”.
